{"source": "PubChem BioAssay AID1347423", "about": "(Functional Genomics Laboratory (NCATS/FGL), 2020)", "note": "Out of some 52,000 sequences screened, about 210 (0.4%) were called active.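 Rule for the calls: active = gene whose silencing raises cell survival under the drug, median off-target-corrected z-score across its silencing RNAs 2 or more; inactive = the rest.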 This is one part of the list.", "data": [{"assay": "Resistance to Poly (ADP-Ribose) Polymerase inhibitor: Gene Identification via Genome-wide siRNA Screen", "conditions": "mouse BRCA2 R2336H ES cells, olaparib, CellTiter-Glo viability; stronger effect = higher value", "outline": "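Genome-wide siRNA screen (3 siRNAs/gene, 20 nM) in mouse ES cells carrying hypomorphic BRCA2 R2336H; olaparib 500 nM added 48 h post-transfection, CellTiter-Glo viability 72 h later. Normalized to plate-median negative control; MAD z-scores, gene median, seed-adjusted.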", "values": [{"sequence": "GGAGGCUGUGAAAGAAUCATT against Gzma", "z-score": "inactive: 2.24"}, {"sequence": "GCUAUGUCAUGGUUGGAACTT against Bat3", "z-score": "inactive: 1.86"}, {"sequence": "GGCCGGAAGGAUAUUACCUTT against Epha3", "z-score": "inactive: -0.573"}, {"sequence": "GCAGAUACGUAGAAGGAUCTT against Olfr555", "z-score": "inactive: 0.988"}, {"sequence": "GGCCUCAAAUACCAUAACATT against BC066028", "z-score": "inactive: 0.584"}, {"sequence": "GGGACAAAUAAGAAAACCCTT against 1110021H02Rik", "z-score": "inactive: 1.04"}, {"sequence": "GCAUUACACUGUUAAUGUUTT against Gopc", "z-score": "inactive: -0.174"}, {"sequence": "GCGUGUUACCAUAAAACUUTT against 1700021K19Rik", "z-score": "inactive: 0.505"}, {"sequence": "GGUAAACUUGACAAUAGGATT against 2700069A02Rik", "z-score": "inactive: 0.776"}, {"sequence": "CCUAAAACUCACCAUAGAGTT against Nfatc3", "z-score": "inactive: -0.0858"}, {"sequence": "GGUGAAGCCACAAUGUUCCTT against Helt", "z-score": "inactive: -0.626"}, {"sequence": "GGUUAUUACCCACUCAAAATT against Mkks", "z-score": "inactive: 0.749"}, {"sequence": "GGAACUGGAAAACUUCAAATT against Mrvi1", "z-score": "inactive: -0.592"}, {"sequence": "GCAAGCAAACUGGAGUUGATT against Rnf137", "z-score": "inactive: 0.651"}, {"sequence": "GGAUCUGACACACAUGAUCTT against Thrap5", "z-score": "inactive: 1.46"}, {"sequence": "GGACAUCAACGACAGUGAATT against Cdh22", "z-score": "inactive: -0.762"}, {"sequence": "GCCACAAUGGGCAGUCUUATT against Crim2", "z-score": "inactive: -2.07"}, {"sequence": "GGCAACUUUGUUAUAUACATT against Sh2bp1", "z-score": "inactive: -0.76"}, {"sequence": "GCGACUUCGCUAUAUCAAGTT against Samhd1", "z-score": "inactive: -2.63"}, {"sequence": "CCAUUAAAAACCCAGAGGATT against Xlkd1", "z-score": "inactive: 0.569"}, {"sequence": "GGAGUUGAGCAAGACCAAGTT against BC027663", "z-score": "inactive: 0.707"}, {"sequence": "GCAGAGGGACAGUCUACAUTT against Rorc", "z-score": "inactive: -0.184"}, {"sequence": "GGCAUUGAAUUUGACUGGATT against 5033425B17Rik", "z-score": "inactive: -1.01"}, {"sequence": "GGGUGCAUGCCUUAAACAATT against Utrn", "z-score": "inactive: 0.837"}, {"sequence": "GGAUUUACGACCUAACCAUTT against 0710008K08Rik", "z-score": "inactive: 0.336"}, {"sequence": "GGGUUCAGAAUAGAAAGAUTT against 2010002A20Rik", "z-score": "inactive: -1.2"}, {"sequence": "GCGUAUAUGUUAUGCUUCATT against Zpbp", "z-score": "inactive: -0.336"}, {"sequence": "GGCAUCACAGUGUACGAUUTT against Glis3", "z-score": "inactive: -0.222"}, {"sequence": "GGACAUAGCACGUCUUUUGTT against 2610529H08Rik", "z-score": "inactive: 0.608"}, {"sequence": "GGAAGAUCUCUUGUCUGCUTT against Mtcp1", "z-score": "inactive: 0.815"}, {"sequence": "GGUCUGAAGAAGAUUCUGGTT against AW538196", "z-score": "inactive: 0.434"}, {"sequence": "GCCUGUUAGCUAUAUUAAGTT against Ahr", "z-score": "inactive: 1.11"}, {"sequence": "GGACUAGCCCUCUUUUAUUTT against 5830411N06Rik", "z-score": "inactive: -0.0761"}, {"sequence": "CCAUGUGUCAAACUACCGGTT against Rbmx2", "z-score": "inactive: 1.66"}, {"sequence": "CGAACUUGUACAGAAGAAUTT against Slfn3", "z-score": "inactive: 0.147"}, {"sequence": "CGUUUCUGUGGACAGAAUUTT against Tmem55b", "z-score": "inactive: -0.174"}, {"sequence": "GCCUAUGAGGAACUACCUATT against Pga5", "z-score": "inactive: 0.113"}, {"sequence": "GGCUUGGCUAUGAAAAGUATT against Rusc2", "z-score": "inactive: -2.31"}, {"sequence": "UCAGCUUGCUCAUCAUUAATT against Wfdc13l1", "z-score": "inactive: -0.524"}, {"sequence": "CCAGCUCUCGAUUCCAUCATT against Fem1a", "z-score": "inactive: -1.24"}, {"sequence": "CGAGUUGCAGGAUUUCAAGTT against Slit3", "z-score": "inactive: 0.0837"}, {"sequence": "GGAAUUUGUGAAAAGAAGUTT against Aldh1a2", "z-score": "inactive: 0.884"}, {"sequence": "GCUUACAUGAACAUAUAGUTT against Tiparp", "z-score": "inactive: 0.445"}, {"sequence": "GCUCCGGAAAUUGGCAUCATT against Ppp1r10", "z-score": "inactive: -0.471"}, {"sequence": "GGGUUUCUAUGAAGAGAUCTT against Fhod1", "z-score": "inactive: 0.594"}, {"sequence": "GGCUCGUUUGUACGACUUCTT against Pigm", "z-score": "inactive: -0.698"}, {"sequence": "CGUGGUUAAGGACUUGUUUTT against Nek7", "z-score": "inactive: 0.283"}, {"sequence": "UGGAGCUAGCAAUACAGCGTT against MGC91195", "z-score": "inactive: -0.79"}, {"sequence": "CCAAAUCCCAGAGUUAUUUTT against Htr2c", "z-score": "inactive: 0.535"}, {"sequence": "CGUCCAUAGAACAAUUGCATT against Rnase12", "z-score": "inactive: 0.323"}, {"sequence": "GCUCGAUAUCACAGAGAUUTT against Gm503", "z-score": "inactive: -0.481"}, {"sequence": "AUGGAAUCCAGUAUAGAGCTT against BC088983", "z-score": "inactive: -1.31"}, {"sequence": "GCUAAAGCAGCUCGUCUGGTT against Psmd11", "z-score": "inactive: -2.94"}, {"sequence": "GUACAAGCUGUGCAAGGUGTT against 1110033J19Rik", "z-score": "inactive: -1.39"}, {"sequence": "CGAUCGUGUGGGUUAUAUCTT against Htr1f", "z-score": "inactive: -0.000591"}, {"sequence": "GCACUAGAAGUGUCUUUUCTT against Pcdh21", "z-score": "inactive: 0.751"}, {"sequence": "GCGACACCACUGAUGACGATT against Gga2", "z-score": "inactive: -0.54"}, {"sequence": "GGGCAUGGGAUUUAAUUCUTT against Dnajc11", "z-score": "inactive: -0.585"}, {"sequence": "GGAAGAAAUUCCUAAUGAATT against Igsf11", "z-score": "inactive: 0.0408"}, {"sequence": "CCUGCAUACGAAGUACAUATT against Bsg", "z-score": "inactive: 0.3"}, {"sequence": "GGUGUACAGUAUUUUAGUUTT against 1700024K14Rik", "z-score": "inactive: 0.892"}, {"sequence": "CCUGAACUGAAAUUCCAUGTT against Ftmt", "z-score": "inactive: 0.125"}, {"sequence": "GGAGCUGAGUGAAACUCUUTT against Kcnv1", "z-score": "inactive: -0.919"}, {"sequence": "GCAAGGCGGAGAGUAAAAGTT against MGC48079", "z-score": "inactive: -1.13"}, {"sequence": "GGACUUUGCCCUGGAUUCUTT against 6030411K04Rik", "z-score": "inactive: -2.81"}, {"sequence": "GCACAGAUGCAAGAUAAUCTT against 1700129L13Rik", "z-score": "inactive: 1.22"}]}]}
